## Primary screen of a compound library

Data taken from ChEMBL document CHEMBL3988442, “University of Dundee, Small-Polar-MMV Screening Library” (2021).

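Whole-parasite assay of Trypanosoma brucei over 72 hours; the read-out is not stated. Compounds at 10 µM. Higher reads as stronger inhibition (inferred: compounds with an IC50 in retests scored well above the rest). Values scatter widely below zero; nearly all retest evidence comes from the higher of the two concentrations used. About 2,700 compounds were tested under these conditions; 0.51% (about 14) showed 50% or more at least once.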

Values are the deposited “Percent Effect”, in %. The controls that fix the scale are not given in the record; negative values are as filed. This is an unselected part of the compounds tested.

{"smiles": "COc1ccc(CC(=O)N2CCCC2Cn2cc(C)cn2)cc1OC", "stereo": "centres undefined", "percent effect": -50.22}
{"smiles": "Cc1ccc(C(=O)N2CCN(Cc3ccccc3)CC2)n1C", "percent effect": 4.298}
{"smiles": "O=C(NCc1cccnc1)Nc1cc(C(F)(F)F)c[nH]c1=O", "percent effect": -71.07}
{"smiles": "CCc1nc(CNCC2CCCN2c2cccnn2)no1", "stereo": "centres undefined", "percent effect": -18.59}
{"smiles": "CNc1cc2c(nn1)CCN(C(=O)c1ccc3c(c1)CCC3)C2", "percent effect": -61.01}
{"smiles": "Cc1ccccc1OCCN1CCCC(c2cc(C(N)=O)[nH]n2)C1", "stereo": "centres undefined", "percent effect": -35.63}
{"smiles": "Cc1cnn(CC(C)NCc2ccc(OCc3nccn3C)cc2)c1", "stereo": "centres undefined", "percent effect": 7.219}
{"smiles": "Clc1ccc2cccnc2c1CN1CCCCC1Cn1cncn1", "stereo": "centres undefined", "percent effect": -56.52}
{"smiles": "c1cncc(-c2noc(CN3CCCC(Cn4cncn4)C3)n2)c1", "stereo": "centres undefined", "percent effect": -36.32}
{"smiles": "Cc1cnn(CC2CN(CC(=O)Nc3cc(C)no3)CCO2)c1", "stereo": "centres undefined", "percent effect": -73.82}
{"smiles": "Cc1ccoc1C(=O)NC1CCN(C(=O)Nc2ccccn2)CC1", "percent effect": -39.88}
{"smiles": "O=C(Nc1cc(C(F)(F)F)c[nH]c1=O)N1CCOCC1", "percent effect": -24.46}
{"smiles": "Cc1ccc(NC2CCN(C(=O)c3ccncc3)CC2)nn1", "percent effect": -43.59}
{"smiles": "CCc1nc(C2CCCN2C(=O)c2ccc3c(c2)nnn3C)no1", "stereo": "centres undefined", "percent effect": -25.38}
{"smiles": "CCc1nc(C2CCCN2C(=O)c2csc(COC)n2)no1", "stereo": "centres undefined", "percent effect": -33.96}
{"smiles": "CCN(Cc1ccc2c(c1)OCO2)C(=O)Cn1cccnc1=O", "percent effect": -35.91}
{"smiles": "Cc1ccc(C(=O)NCc2ccc(N3CCCC(C(N)=O)C3)cc2)o1", "stereo": "centres undefined", "percent effect": 4.216}
{"smiles": "COC1CCN(C(=O)CCn2cccn2)CC1", "percent effect": -92.86}
{"smiles": "CCN1CCN(C2CCN(CC(=O)NCC(F)(F)F)CC2)C1=O", "percent effect": -0.439}
{"smiles": "Cc1cccc(C(=O)N2CCC(C(=O)c3cc(F)ccc3F)CC2)n1", "percent effect": -42.31}
{"smiles": "O=C(CCNc1ncccn1)Nc1cc(C(F)(F)F)c[nH]c1=O", "percent effect": -81.92}
{"smiles": "CCc1cccc(N2CCC(NC(=O)C3CCC3)CC2)c1", "percent effect": -36.65}
{"smiles": "COCCNC(=O)Nc1ccc(-n2cncn2)c(C(F)(F)F)c1", "percent effect": -33.37}
{"smiles": "COc1c(C2CCCN2Cc2cccc(C(N)=O)c2)c(C)nn1C", "stereo": "centres undefined", "percent effect": -0.7653}
{"smiles": "CC(C)Cn1cc(NC(=O)N2CCCC2)cn1", "percent effect": -30.46}
{"smiles": "COc1c(C2CCCN2Cc2noc(C)n2)c(C)nn1C", "stereo": "centres undefined", "percent effect": -33.59}
{"smiles": "CCOc1ncccc1CNC(=O)c1c(C)oc(C)c1C", "percent effect": -51}
{"smiles": "CC(C)c1ncc2c(n1)CN(CC(=O)Nc1ccc(Cl)cn1)CC2", "percent effect": -58.75}
{"smiles": "CC(CO)NC(=O)Nc1ccc(S(C)(=O)=O)nc1", "stereo": "centres undefined", "percent effect": -5.123}
{"smiles": "CCc1noc(C)c1C(=O)N1CCCC(n2nc(C)nc2C)C1", "stereo": "centres undefined", "percent effect": -32.82}
{"smiles": "CC(C)c1nn(C)c(N(C)C)c1CNCC(O)c1cccc(F)c1", "stereo": "centres undefined", "percent effect": -45.99}
{"smiles": "Cc1cc(C)c(CNC(=O)N2CCN(c3nccs3)CC2)c(=O)[nH]1", "percent effect": -4.364}
{"smiles": "CN(Cc1ccsc1)C(=O)Nc1ccc(N2CCCC2)nc1", "percent effect": -33.73}
{"smiles": "Cc1nn(C)c(C)c1C1CCCN1C(=O)CCCNc1ncccn1", "stereo": "centres undefined", "percent effect": -39.21}
{"smiles": "CCc1n[nH]c(C2CN(C(=O)c3ccnc(C4CC4)n3)CCO2)n1", "stereo": "centres undefined", "percent effect": -38.86}
{"smiles": "CC(C)c1noc(CN2CCN(CCO)CC2)n1", "percent effect": -77.39}
{"smiles": "Cc1nn(C)c(N(C)C)c1CNCc1ccnc(N2CCOCC2)c1", "percent effect": 5.485}
{"smiles": "O=C(NCc1nn(-c2ccccc2)c2c1CCC2)NC1CCOCC1", "percent effect": -43.44}
{"smiles": "CC(NC(=O)NCCCn1cccn1)c1ccc2c(c1)OCCCO2", "stereo": "centres undefined", "percent effect": -81.54}
{"smiles": "Cc1cc(C)n(CC2CCCN2C(=O)c2ccnc(N(C)C)c2)n1", "stereo": "centres undefined", "percent effect": -25.06}